PubChem BioAssay AID743121, NCATS | 2013
Test: 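Genes whose silencing strengthens cell killing by camptothecin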 (primary screen). System: MDA-MB-231 cells, a human breast cancer line. Knock-down reagent: single siRNA against human genes, 20 nM siRNA (0.8 pmol per well). Time to read-out: 120 h (drug added 48 h after transfection, read 72 h later). Challenge: camptothecin 20 nM (about EC30) for 72 h; vehicle 0.1% DMSO in parallel plates. Detection: 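CellTiter-Glo ATP signal, scaled to control siRNA as percent viability; sensitisation given as log2 of untreated divided by camptothecin-treated viability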. Direction: log2 vehicle/camptothecin viability: higher = stronger sensitisation to camptothecin. Hit rule: 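Active genes have an RSA gene-level p-value below 0.001, computed from the ratios of their separate siRNAs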.
This is one part, drawn at random, of about 26,000 reagents. Of all reagents, 167 (0.63%) got an active call. 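Calls are per gene from RSA p-values that are not deposited; an individual active-marked siRNA can sensitise only weakly.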 A number with no mark means an inactive call. Reagents against one gene are numbered here. Not all columns of the deposit are shown.

log2 vehicle/camptothecin viability, by gene and reagent
COL6A3: #1 -0.469; #2 -0.173; #3 -0.167
DUS2: #1 -0.17; #2 0.175; #3 0.547; #4 -0.0695
MSC: #1 0.00189; #2 -0.629; #3 -0.508; #4 0.144
LTBP4: #1 0.214; #2 -0.13; #3 -0.133; #4 -0.382
ZNRF4: #1 -0.35; #2 -0.0698; #3 -0.345; #4 -0.432
PEX6: #1 -0.164; #2 -0.218; #3 -0.438; #4 -0.475
RAP1B: #1 -0.124; #2 0.266; #3 -0.31; #4 0.462
CKAP5: #1 -0.336; #2 -0.807; #3 -0.47
NCS1: #1 0.276; #2 -0.0372; #3 0.686
GZMK: #1 0.0986; #2 -0.15; #3 -0.19; #4 -0.12
LHCGR: #1 0.016; #2 -0.305; #3 -0.277; #4 -0.556
ABCB11: #1 -0.473; #2 -0.00272; #3 -0.38; #4 0.0569
SLC7A4: #1 -0.145; #2 0.0369; #3 -0.0566; #4 0.662
MVK: #1 -0.285; #2 -0.408; #3 -0.582; #4 -0.523
CHD4: #1 -0.129; #2 -0.408; #3 -0.508; #4 -0.173
GPR160: #1 -0.01; #2 0.114; #3 -0.0895
CRY1: #1 0.00869; #2 0.0394; #3 -0.00517; #4 0.323
KCNMB2: #1 -0.0785; #2 0.18; #3 -0.156; #4 -0.385

Entries listed so far whose gene name starts with G or g (7):
log2 vehicle/camptothecin viability, by gene and reagent
GZMK: #1 0.0986; #2 -0.15; #3 -0.19; #4 -0.12
GPR160: #1 -0.01; #2 0.114; #3 -0.0895
